Measured values from US20200113912A1, “Methods and Compositions for the Treatment of Disease with Immune Stimulatory Conjugates” (Silverback Therapeutics, Inc., priority 2018, published 2020).
At least one compound was matched to its structure with a doubt left.

Details: prophylactic dose, 60 μg per mouse SC

In the case of `C[C@@H]1C[C@H]2[C@@H]3CCC4=CC(=O)C=C[C@]4(C)[C@@]3(F)[C@@H](O)C[C@]2(C)[C@@]1(O)C(=O)CO` [dexamethasone], the “effect on toxicity of second IV dose of HER2-TLR7” value is reported as “had no effect”.
